According to the supplement of paper PMC6078165:
Values are relative to the signal before dosing, not to a vehicle control; the signal also falls without drug.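 Labels refer to human fibroblasts, largely primary: uterine (C12385, HUF), lung (H6013), bone (Hs27A), adrenal (HADF), skin (WS1), plus mammary HMF and breast cancer-associated Hs343T. Cancer lines are basal-like or mesenchymal-like triple-negative breast cancer. The paper counts as hits responses shifting over 3x the replicate standard deviation. The tissue of the other fibroblasts is not given here.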

System: BT20
Experiment: relative JC-1 red fluorescence (viability) vs pre-drug, coculture with fibroblast (fraction); higher = more viable cancer cells
Description: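 JC-1 labelled TNBC cells cocultured 1:1 (1,500 cells each) with CellTrace Violet stained primary or stromal fibroblasts in 384-well plates in FluoroBrite medium, treated with one of 42 anticancer drugs at 0.1, 1, 10 or 100 uM. JC-1 red fluorescence (mitochondrial integrity in cancer cells only) was read by plate reader every 8 h for 72 h. Values are normalised to each well's pre-drug value. The stock of one drug was tenfold lower, so its dose labels may be too high.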

CCc1c2c(nc3ccc(OC(=O)N4CCC(N5CCCCC5)CC4)cc13)-c1cc3c(c(=O)n1C2)COC(=O)[C@]3(O)CC [Irinotecan]
relative JC-1 red fluorescence
Conditions	8 h	16 h	24 h	32 h	40 h	48 h	56 h	64 h	72 h
10 µM, coculture fibroblast: C12385	0.918	0.851	0.857	0.804	0.761	0.737	0.721	0.717	0.704
10 µM, coculture fibroblast: H6013	0.943	0.9204	0.8936	0.8437	0.795	0.78	0.778	0.7616	0.75027
10 µM, coculture fibroblast: H6019	0.88	0.841	0.825	0.763	0.712	0.698	0.67	0.651	0.634
10 µM, coculture fibroblast: H6076	0.877	0.927	0.873	0.862	0.828	0.814	0.816	0.827	0.82
10 µM, coculture fibroblast: H6231	0.888	0.946	0.854	0.7803	0.722	0.66	0.601	0.578	0.531
10 µM, coculture fibroblast: HADF	0.846	0.893	0.8558	0.815	0.781	0.742	0.731	0.707	0.68
10 µM, coculture fibroblast: HCFa	0.908	0.8629	0.829	0.76	0.709	0.669	0.6428	0.6161	0.582
10 µM, coculture fibroblast: HCPF	0.976	0.901	0.847	0.8	0.767	0.725	0.701	0.681	0.649
10 µM, coculture fibroblast: HHSteC	0.9116	0.864	0.836	0.763	0.7	0.662	0.629	0.603	0.573
10 µM, coculture fibroblast: HMF	0.9688	0.9016	0.823	0.773	0.738	0.706	0.681	0.647	0.6243
10 µM, coculture fibroblast: HPFa	0.955	0.895	0.894	0.819	0.8	0.764	0.745	0.717	0.684
10 µM, coculture fibroblast: HUF	0.908	0.819	0.789	0.702	0.652	0.601	0.565	0.54	0.526
10 µM, coculture fibroblast: Hs5	0.849	0.971	0.876	0.824	0.777	0.734	0.704	0.676	0.668
10 µM, coculture fibroblast: Hs27A	0.889	0.766	0.895	0.906	0.931	0.924	0.91	0.898	0.861
10 µM, coculture fibroblast: Hs343T	0.865	0.946	0.88	0.833	0.787	0.746	0.703	0.679	0.644
10 µM, coculture fibroblast: WS1	0.849	0.783	0.773	0.71	0.659	0.646	0.625	0.61	0.597
100 µM, coculture fibroblast: C12385	0.885	0.878	0.873	0.792	0.706	0.676	0.665	0.67	0.668
100 µM, coculture fibroblast: H6013	0.868	0.85	0.933	0.91	0.954	0.88	0.927	0.83	0.92
100 µM, coculture fibroblast: H6019	0.887	0.853	0.872	0.822	0.783	0.791	0.788	0.802	0.815
100 µM, coculture fibroblast: H6076	0.814	0.88	0.927	0.87209	0.81	0.768	0.758	0.759	0.734
100 µM, coculture fibroblast: H6231	0.794	0.966	0.904	0.836	0.783	0.734	0.723	0.709	0.694
100 µM, coculture fibroblast: HADF	0.987	0.9795	0.976	0.935	0.902	0.873	0.893	0.892	0.88
100 µM, coculture fibroblast: HCFa	0.886	0.916	0.97398	0.9119	0.8651	0.838	0.834	0.8257	0.805
100 µM, coculture fibroblast: HCPF	0.809	0.9696	0.9296	0.882	0.844	0.793	0.757	0.738	0.706
100 µM, coculture fibroblast: HHSteC	0.9603	0.837	0.862	0.918	0.874	0.835	0.828	0.822	0.808
100 µM, coculture fibroblast: HMF	0.786	0.87	0.934	0.8424	0.781	0.732	0.696	0.675	0.646
100 µM, coculture fibroblast: HPFa	0.979	0.9706	0.905	0.889	0.886	0.854	0.86	0.857	0.829
100 µM, coculture fibroblast: HUF	0.93	0.887	0.878	0.766	0.722	0.689	0.693	0.696	0.688
100 µM, coculture fibroblast: Hs5	0.9799	0.932	0.899	0.885	0.9	0.894	0.9	0.9	0.893
100 µM, coculture fibroblast: Hs27A	0.823	0.894	0.769	0.866	0.831	0.828	0.75	0.848	0.862
100 µM, coculture fibroblast: Hs343T	0.875	0.843	0.857	0.761	0.679	0.627	0.602	0.5817	0.5569
100 µM, coculture fibroblast: WS1	0.88	0.848	0.851	0.787	0.744	0.723	0.712	0.69	0.682
